Laboratory results from article PMC6529219.

Amino acid sequences for entries named in this document (tags omitted). A change or cut given only in a name is not applied to a line headed by its entry.
UniProt P42858: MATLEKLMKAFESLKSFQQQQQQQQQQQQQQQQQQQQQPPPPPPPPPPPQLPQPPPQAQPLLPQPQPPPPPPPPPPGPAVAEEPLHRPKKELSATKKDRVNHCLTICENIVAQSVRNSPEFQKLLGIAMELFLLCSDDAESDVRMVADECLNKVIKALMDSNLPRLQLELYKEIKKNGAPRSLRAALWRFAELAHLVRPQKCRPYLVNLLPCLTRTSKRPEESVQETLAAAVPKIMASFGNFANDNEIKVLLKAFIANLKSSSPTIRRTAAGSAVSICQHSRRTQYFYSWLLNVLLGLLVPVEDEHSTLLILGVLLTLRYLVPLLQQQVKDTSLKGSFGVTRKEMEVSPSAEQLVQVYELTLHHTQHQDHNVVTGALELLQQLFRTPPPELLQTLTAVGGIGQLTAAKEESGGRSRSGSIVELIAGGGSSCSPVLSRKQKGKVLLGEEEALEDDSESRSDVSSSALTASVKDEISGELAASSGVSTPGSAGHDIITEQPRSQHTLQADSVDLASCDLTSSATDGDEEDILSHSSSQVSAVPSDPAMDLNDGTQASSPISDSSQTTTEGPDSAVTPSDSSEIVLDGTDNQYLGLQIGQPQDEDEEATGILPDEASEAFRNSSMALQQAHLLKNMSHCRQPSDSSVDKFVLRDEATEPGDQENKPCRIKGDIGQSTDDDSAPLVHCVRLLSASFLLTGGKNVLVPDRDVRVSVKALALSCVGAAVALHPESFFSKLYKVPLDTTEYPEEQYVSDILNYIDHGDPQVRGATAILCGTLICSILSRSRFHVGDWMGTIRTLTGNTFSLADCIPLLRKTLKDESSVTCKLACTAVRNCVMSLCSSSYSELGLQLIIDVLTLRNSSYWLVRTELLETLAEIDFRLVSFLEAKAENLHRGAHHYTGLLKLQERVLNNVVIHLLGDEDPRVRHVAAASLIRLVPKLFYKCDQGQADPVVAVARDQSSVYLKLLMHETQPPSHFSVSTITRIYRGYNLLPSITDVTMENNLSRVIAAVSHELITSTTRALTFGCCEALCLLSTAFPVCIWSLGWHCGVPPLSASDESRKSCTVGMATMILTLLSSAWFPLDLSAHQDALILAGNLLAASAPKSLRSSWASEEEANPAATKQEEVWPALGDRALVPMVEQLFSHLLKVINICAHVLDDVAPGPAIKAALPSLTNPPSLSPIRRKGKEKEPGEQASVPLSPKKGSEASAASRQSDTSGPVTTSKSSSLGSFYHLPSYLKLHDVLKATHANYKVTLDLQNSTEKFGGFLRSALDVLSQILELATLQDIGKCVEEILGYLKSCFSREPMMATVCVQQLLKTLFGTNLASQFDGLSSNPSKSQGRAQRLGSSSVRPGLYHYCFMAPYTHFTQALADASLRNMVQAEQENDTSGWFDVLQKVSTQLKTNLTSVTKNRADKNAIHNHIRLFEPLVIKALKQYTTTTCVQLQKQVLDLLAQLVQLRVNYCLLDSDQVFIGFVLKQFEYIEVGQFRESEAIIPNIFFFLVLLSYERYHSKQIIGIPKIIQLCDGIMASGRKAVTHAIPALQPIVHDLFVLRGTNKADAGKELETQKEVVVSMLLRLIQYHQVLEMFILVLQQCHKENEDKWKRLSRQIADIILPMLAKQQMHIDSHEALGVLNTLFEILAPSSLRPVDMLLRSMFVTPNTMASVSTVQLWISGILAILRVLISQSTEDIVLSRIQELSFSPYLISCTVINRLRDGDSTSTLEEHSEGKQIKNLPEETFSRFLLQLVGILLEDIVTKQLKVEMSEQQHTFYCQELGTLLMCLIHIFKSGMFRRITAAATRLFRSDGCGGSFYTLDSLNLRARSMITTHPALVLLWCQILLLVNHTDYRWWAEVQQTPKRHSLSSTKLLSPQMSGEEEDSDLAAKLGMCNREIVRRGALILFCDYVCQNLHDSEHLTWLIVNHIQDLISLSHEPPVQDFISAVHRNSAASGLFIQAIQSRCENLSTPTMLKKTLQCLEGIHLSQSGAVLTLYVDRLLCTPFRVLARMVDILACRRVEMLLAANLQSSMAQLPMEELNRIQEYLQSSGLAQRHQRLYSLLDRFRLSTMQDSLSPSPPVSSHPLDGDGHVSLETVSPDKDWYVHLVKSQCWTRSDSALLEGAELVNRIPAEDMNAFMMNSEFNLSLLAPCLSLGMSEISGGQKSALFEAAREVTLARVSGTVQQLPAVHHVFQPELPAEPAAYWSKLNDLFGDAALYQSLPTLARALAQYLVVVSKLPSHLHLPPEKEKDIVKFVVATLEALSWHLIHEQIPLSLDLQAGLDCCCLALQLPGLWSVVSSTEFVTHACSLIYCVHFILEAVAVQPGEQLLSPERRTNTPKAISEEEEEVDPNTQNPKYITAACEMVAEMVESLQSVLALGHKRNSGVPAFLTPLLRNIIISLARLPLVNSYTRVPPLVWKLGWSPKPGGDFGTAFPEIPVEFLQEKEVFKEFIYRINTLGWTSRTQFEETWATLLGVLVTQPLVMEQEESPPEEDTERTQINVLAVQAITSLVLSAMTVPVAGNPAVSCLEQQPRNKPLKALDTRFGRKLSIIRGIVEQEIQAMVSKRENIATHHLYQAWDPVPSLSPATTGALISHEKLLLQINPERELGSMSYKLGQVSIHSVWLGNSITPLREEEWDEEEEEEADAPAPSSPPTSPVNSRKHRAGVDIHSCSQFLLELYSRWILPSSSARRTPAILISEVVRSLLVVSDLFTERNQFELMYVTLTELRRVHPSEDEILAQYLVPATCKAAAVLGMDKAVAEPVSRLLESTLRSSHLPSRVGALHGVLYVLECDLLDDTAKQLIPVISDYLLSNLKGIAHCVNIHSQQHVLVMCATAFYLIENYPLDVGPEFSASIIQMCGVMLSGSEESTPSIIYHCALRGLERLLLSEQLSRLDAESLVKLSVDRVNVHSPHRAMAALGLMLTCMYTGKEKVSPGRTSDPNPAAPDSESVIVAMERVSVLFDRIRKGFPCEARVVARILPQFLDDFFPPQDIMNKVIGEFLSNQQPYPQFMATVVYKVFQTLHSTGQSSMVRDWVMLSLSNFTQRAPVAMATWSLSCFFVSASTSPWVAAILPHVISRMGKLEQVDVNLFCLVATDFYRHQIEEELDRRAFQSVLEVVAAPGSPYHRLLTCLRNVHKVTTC
UniProt P43138: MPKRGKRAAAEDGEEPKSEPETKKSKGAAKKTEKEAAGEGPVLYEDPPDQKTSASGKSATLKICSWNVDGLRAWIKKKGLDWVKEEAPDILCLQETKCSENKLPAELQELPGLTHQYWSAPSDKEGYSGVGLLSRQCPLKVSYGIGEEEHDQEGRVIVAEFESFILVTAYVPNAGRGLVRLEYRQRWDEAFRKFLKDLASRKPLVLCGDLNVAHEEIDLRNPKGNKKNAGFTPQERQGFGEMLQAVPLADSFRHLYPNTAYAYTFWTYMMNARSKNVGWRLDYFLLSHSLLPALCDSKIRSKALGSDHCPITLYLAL
UniProt Q6JHU9: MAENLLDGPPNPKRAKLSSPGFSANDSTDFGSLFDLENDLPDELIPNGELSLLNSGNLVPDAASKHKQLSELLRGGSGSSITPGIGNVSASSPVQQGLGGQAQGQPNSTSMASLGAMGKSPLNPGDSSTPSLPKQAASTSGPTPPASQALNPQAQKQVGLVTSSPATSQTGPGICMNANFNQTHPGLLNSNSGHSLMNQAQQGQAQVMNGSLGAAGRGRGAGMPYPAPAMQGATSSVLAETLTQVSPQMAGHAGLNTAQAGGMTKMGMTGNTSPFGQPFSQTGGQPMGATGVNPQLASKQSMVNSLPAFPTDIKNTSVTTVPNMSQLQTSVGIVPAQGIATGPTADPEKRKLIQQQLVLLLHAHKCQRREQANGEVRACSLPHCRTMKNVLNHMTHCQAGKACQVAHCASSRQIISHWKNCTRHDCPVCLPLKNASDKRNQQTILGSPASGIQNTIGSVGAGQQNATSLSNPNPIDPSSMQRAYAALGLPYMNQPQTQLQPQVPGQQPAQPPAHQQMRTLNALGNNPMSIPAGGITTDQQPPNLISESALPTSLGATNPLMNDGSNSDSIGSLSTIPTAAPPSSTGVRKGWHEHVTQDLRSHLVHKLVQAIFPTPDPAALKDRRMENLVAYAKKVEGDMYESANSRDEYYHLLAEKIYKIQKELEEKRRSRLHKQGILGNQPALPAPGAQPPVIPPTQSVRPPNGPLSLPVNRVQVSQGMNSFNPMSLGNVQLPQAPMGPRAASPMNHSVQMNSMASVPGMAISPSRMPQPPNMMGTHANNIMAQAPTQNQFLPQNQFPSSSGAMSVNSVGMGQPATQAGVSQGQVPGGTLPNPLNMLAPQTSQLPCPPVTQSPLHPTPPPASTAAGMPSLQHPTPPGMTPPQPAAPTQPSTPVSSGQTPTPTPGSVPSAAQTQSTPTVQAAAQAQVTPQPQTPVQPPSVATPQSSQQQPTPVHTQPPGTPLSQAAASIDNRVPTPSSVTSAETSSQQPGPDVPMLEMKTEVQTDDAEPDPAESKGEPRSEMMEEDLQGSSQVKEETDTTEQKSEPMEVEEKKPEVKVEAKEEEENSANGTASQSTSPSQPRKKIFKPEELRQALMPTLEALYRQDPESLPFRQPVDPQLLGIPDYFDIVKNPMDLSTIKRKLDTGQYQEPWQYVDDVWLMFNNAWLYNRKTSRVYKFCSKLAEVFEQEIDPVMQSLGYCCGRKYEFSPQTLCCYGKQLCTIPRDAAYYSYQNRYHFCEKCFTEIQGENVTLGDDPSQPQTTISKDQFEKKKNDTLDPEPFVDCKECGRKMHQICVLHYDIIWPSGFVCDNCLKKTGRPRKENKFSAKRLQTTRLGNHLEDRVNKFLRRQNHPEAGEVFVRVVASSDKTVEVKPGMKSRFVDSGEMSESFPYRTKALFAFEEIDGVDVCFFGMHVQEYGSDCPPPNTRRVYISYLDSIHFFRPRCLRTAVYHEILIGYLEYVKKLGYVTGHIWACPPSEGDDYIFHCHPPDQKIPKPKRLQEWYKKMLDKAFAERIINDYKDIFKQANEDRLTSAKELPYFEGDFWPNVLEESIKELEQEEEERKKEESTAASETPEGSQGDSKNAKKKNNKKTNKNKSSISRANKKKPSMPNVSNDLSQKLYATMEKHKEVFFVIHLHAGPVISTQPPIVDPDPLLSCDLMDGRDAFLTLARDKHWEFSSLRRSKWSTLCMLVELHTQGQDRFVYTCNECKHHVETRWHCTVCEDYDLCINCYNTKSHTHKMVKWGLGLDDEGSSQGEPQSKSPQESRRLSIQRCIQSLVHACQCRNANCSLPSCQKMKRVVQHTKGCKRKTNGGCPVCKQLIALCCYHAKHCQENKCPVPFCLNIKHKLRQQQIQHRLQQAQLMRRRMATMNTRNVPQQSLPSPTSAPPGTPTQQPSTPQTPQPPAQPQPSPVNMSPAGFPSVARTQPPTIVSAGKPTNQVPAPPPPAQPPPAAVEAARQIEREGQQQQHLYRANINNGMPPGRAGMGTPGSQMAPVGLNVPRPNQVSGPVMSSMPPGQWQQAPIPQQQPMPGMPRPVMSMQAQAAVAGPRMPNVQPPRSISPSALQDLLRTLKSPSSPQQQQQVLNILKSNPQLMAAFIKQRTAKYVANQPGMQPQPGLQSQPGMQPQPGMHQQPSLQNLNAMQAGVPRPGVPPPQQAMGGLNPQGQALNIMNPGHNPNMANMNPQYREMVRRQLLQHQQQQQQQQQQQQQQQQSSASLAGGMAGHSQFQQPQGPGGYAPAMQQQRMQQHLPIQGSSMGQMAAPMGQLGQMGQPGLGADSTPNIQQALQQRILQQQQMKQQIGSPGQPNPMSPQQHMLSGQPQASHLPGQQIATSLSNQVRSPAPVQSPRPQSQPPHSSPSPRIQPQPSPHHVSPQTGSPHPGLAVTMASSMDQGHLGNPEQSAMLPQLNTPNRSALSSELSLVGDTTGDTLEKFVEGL

Columns and labels:
[1] = biological target: Myc-tagged full-length mutant HTT (FL-mHTT-Q148) (UniProt P42858); assay: co-IP; FLAG-tagged PNKP or its domains transfected into PC12 cells expressing Myc-tagged full-length HTT (Q23 or Q148); IP with anti-Myc antibody from nuclear extract, blot with anti-FLAG
[2] = biological target: Myc-tagged full-length mutant HTT (FL-mHTT-Q148) (UniProt P42858); assay: co-IP; Myc-tagged full-length HTT or N-terminal HTT fragment immunoprecipitated with anti-Myc antibody from nuclear extract of PC12 cells; western blot for endogenous proteins

Row | binding [2] | Substance | binding [1]
1 |  | FLAG-tagged full-length PNKP (FL-PNKP) (from UniProt Q96T60 1-521) (enzyme) | binds
2 | no binding | APE1, endogenous in PC12 cells (from UniProt P43138 1-317) (enzyme) | 
3 | binds | CBP, endogenous in PC12 cells (from UniProt Q6JHU9 1-2442) (enzyme) | 
4 | binds | ATXN3, endogenous in PC12 cells (from UniProt O35815 1-355) (enzyme) | 
5 |  | FLAG-tagged PNKP PHOS + KIN domains (C-terminal catalytic domain) (from UniProt Q96T60 131-521) (domain or fragment) | binds

Results are given in words; binding and its absence hold for the method and conditions named. In cells and extracts the contact can be indirect. Binding can be weak; no strength is given.
